Where a chain is given by its changes, count along the chain named. Results are given in words; binding and its absence hold for the method and conditions named. Binding seen in cells or lysates may run through a third protein. Some entries that bind do so weakly or less than the wild type. For some of these results: Where a sequence is shown, tags or fusion partners need not be part of it.
Tests used:
c-Myc-tagged PKC-θ-A148E = molecular target: T1, c-Myc-tagged PKC-θ-A148E (UniProt Q04759); assay: co-IP; reciprocal IPs from lysates of transfected Jurkat-TAg cells: tagged RanGAP1 with endogenous PKC-θ, or c-Myc-tagged PKC-θ with endogenous RanGAP1; immunoblot
T1 sequence: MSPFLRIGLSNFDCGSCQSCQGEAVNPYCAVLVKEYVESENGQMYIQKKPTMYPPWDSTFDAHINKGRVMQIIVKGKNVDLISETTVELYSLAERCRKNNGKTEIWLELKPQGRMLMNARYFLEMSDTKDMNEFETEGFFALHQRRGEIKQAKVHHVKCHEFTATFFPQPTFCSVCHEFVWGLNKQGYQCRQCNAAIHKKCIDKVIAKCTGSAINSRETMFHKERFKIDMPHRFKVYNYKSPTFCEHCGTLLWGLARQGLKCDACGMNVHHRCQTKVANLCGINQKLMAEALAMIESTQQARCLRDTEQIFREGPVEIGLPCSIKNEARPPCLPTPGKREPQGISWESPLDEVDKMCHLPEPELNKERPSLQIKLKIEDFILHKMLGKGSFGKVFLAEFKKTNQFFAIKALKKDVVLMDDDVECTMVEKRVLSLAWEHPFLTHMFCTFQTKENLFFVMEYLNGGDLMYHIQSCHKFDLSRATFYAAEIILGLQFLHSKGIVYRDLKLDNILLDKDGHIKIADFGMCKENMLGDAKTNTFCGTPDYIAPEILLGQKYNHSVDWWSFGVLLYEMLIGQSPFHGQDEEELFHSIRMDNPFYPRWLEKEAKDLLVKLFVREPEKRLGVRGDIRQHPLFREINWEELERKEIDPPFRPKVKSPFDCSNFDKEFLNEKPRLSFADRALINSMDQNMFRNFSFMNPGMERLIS

[1] = molecular target: c-Myc-tagged wild-type PKC-θ (UniProt Q04759); assay: as above
GST-RanGAP1 (human) [2] = molecular target: T2, GST-RanGAP1 (human) (UniProt P46060); assay: pull-down; GST-fusion proteins (purified from E. coli) with lysate of unstimulated Jurkat E6.1 cells; PKC-θ detected by immunoblot; only the target purified
T2 sequence: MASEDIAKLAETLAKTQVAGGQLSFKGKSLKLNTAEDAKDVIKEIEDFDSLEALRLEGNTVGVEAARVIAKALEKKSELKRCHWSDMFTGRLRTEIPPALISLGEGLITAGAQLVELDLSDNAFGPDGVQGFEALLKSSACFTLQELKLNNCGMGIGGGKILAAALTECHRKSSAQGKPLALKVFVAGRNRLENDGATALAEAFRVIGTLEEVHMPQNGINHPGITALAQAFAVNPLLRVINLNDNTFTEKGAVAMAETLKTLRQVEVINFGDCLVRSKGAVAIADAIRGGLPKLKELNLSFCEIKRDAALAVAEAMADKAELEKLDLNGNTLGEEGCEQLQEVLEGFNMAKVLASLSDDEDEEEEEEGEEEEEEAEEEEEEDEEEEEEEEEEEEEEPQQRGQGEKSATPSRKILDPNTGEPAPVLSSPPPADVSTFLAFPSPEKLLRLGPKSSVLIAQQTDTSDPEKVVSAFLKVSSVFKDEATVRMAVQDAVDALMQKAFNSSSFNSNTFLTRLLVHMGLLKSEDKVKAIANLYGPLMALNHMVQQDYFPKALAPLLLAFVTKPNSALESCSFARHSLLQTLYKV

GST-RanGAP1 (human) [3] = molecular target: T2, GST-RanGAP1 (human); assay: pull-down; in vitro protein direct binding assay with GST-fusion proteins (scheme in Figure 2A; not described in the methods)
[4] = molecular target: T3, RanGAP1, non-sumoylated form, endogenous, human (human (endogenous in Jurkat)) (UniProt P46060); assay: co-IP; reciprocal IPs of endogenous PKC-θ or RanGAP1 from Jurkat E6.1 cells stimulated 0-15 min with anti-CD3 plus anti-CD28; weak constitutive interaction with sumoylated RanGAP1, increased on stimulation
T3 sequence: T2 sequence

[5] = molecular target: RanGAP1-SUMO1 (SUMO1-conjugated RanGAP1), endogenous, human (human (endogenous in Jurkat)) (UniProt P46060+P63165); assay: as above
[6] = molecular target: T4, Flag-tagged RanGAP1-K524R (human) (UniProt P46060); assay: co-IP; reciprocal IPs from lysates of transfected Jurkat-TAg cells: tagged RanGAP1 with endogenous PKC-θ, or c-Myc-tagged PKC-θ with endogenous RanGAP1; immunoblot
T4 sequence: T2 sequence with K524R

Measured: binding

RanGAP1-SUMO1 (SUMO1-conjugated RanGAP1), endogenous, human (from UniProt P46060 1-587; P63165 1-97) (complex)
binds: c-Myc-tagged PKC-θ-A148E | [1]

protein kinase C-θ (PKC-θ), endogenous, human T cells (from UniProt Q04759-1 1-706) (enzyme)
not listed: c-Myc-tagged PKC-θ-A148E | [1]
binds: all other assays above
